Reference: PMC2680976
Results are given in words; binding and its absence hold for the method and conditions named. In cells and extracts the contact can be indirect. Some binding calls cover weakened binding; strength is not graded here.

Chains of the proteins cited; added tags and fusions are not shown. Lines headed by an entry give the natural chain unless they say otherwise; changes in a name come on top. A line that says so, or that is headed by a name, gives the form on record, which may keep a tag or linker. Residues count along the entry.
UniProt P43119: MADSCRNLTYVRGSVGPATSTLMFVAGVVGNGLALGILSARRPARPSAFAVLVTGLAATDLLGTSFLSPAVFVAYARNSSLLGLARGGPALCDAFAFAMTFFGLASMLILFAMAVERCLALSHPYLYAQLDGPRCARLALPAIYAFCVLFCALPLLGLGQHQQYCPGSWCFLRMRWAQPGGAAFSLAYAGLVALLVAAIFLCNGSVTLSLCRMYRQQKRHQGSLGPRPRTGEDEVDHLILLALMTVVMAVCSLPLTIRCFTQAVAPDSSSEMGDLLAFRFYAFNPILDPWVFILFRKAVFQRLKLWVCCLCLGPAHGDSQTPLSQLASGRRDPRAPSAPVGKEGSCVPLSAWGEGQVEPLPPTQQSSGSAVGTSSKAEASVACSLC
hIP^Δ312, HA-tagged truncation of the human prostacyclin receptor: residues 1-311 of P43119
hIP^Δ307, HA-tagged truncation of the human prostacyclin receptor: residues 1-306 of P43119
UniProt P20339: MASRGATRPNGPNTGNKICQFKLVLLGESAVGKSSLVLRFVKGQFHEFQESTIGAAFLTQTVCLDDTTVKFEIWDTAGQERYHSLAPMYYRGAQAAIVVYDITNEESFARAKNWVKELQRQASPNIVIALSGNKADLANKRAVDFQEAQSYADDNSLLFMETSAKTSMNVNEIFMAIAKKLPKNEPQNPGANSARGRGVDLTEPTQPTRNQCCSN

What was measured:
[1] = biological target: hIP^Δ312, HA-tagged truncation of the human prostacyclin receptor (human) (UniProt P43119); experiment: co-IP; HEK 293 cells stably expressing HA-tagged hIP, hIP^Δ312 or hIP^Δ307, transfected with GFP-Rab5a forms; vehicle or 1 μM cicaprost 2 h at 37 °C; lysis in RIP buffer; immunoprecipitation with anti-HA 101R and protein G Sepharose; blot with anti-Rab5
[2] = biological target: human prostacyclin receptor (hIP), HA-tagged, wild type (human) (UniProt P43119); experiment: as above
[3] = biological target: hIP^Δ307, HA-tagged truncation of the human prostacyclin receptor (human) (UniProt P43119); experiment: as above
[4] = biological target: human prostacyclin receptor (hIP), HA-tagged, wild type (human) (UniProt P43119); experiment: co-IP; data not shown: anti-HA immunoprecipitates of HEK.hIP cells transfected with GFP-Rab5a, vehicle or 1 μM cicaprost; blot with anti-GFP

Substance | binding [1] | binding [2] | binding [3] | binding [4]
GFP-tagged Rab5a, wild type (from UniProt P20339 1-215) | binds | binds | binds | binds
GFP-tagged Rab5a^Q79L (constitutively active, GTPase defective) (from UniProt P20339 1-215) | – | binds | – | –
GFP-tagged Rab5a^S34N (dominant negative, GTP-binding defective) (from UniProt P20339 1-215) | – | binds | – | –
